Data: the supplement of paper PMC10849652
The list shows a part of the results.

Amino acid sequences for entries named in this document (tags omitted). A change or cut given only in a name is not applied to a line headed by its entry.
UniProt O43736: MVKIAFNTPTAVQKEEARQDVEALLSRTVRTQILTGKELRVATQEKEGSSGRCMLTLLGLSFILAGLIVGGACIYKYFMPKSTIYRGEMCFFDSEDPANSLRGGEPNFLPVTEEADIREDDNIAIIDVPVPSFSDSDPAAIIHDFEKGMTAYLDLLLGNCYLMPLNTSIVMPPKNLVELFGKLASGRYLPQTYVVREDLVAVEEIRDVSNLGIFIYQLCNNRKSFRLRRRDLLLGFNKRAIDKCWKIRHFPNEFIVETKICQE
UniProt Q9BT40: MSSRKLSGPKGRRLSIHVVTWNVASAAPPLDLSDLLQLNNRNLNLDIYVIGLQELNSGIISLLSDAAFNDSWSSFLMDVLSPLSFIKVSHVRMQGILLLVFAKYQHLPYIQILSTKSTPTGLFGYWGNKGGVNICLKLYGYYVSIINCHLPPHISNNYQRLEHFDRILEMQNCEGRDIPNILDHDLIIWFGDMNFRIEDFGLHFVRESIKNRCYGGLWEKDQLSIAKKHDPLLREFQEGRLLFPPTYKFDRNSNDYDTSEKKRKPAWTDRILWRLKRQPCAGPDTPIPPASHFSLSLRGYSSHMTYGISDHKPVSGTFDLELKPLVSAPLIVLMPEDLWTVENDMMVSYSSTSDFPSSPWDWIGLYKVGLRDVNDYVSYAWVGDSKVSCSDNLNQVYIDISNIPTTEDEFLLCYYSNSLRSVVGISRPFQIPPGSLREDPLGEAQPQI
UniProt Q70UQ0: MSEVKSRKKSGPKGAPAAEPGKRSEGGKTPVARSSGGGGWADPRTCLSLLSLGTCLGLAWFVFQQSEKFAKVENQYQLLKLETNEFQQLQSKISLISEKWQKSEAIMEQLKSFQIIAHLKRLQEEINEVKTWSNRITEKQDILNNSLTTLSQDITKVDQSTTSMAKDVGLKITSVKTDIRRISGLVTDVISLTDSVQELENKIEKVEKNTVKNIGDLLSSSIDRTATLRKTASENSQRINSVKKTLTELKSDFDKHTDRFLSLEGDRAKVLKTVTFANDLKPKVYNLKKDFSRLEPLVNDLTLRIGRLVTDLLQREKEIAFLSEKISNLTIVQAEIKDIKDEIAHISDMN
UniProt Q75QN2, whole entry, looked up: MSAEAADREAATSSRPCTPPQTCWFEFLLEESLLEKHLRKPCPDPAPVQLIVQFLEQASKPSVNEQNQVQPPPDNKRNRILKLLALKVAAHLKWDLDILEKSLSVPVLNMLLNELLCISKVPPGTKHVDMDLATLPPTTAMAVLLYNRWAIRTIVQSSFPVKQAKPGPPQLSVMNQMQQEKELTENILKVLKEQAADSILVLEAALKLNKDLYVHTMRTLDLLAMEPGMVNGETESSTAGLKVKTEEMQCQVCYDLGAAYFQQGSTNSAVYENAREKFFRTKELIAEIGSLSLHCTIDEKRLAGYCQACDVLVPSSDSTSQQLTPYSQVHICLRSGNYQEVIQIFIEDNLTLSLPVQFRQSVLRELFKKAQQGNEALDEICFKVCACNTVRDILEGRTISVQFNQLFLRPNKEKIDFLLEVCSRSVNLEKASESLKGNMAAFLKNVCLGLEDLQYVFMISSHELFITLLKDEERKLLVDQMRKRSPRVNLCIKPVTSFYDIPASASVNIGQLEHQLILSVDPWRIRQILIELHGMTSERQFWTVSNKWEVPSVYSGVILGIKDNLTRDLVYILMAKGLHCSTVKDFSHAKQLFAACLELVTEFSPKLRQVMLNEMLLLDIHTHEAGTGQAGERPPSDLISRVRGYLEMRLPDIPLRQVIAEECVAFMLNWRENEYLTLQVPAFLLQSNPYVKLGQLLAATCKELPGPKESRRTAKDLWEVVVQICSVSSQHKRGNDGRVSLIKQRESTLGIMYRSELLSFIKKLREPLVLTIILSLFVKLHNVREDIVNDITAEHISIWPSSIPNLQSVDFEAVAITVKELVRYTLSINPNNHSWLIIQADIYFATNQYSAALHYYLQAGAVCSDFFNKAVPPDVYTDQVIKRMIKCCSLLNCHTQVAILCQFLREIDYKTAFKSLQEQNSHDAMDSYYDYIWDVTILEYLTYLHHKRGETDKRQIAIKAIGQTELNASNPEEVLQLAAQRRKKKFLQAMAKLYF
UniProt Q86U28: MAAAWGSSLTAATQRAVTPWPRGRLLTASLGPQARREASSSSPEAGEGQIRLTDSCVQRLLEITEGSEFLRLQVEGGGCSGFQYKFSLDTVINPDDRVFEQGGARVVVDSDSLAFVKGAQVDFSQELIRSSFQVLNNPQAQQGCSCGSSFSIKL
UniProt Q9H2S9: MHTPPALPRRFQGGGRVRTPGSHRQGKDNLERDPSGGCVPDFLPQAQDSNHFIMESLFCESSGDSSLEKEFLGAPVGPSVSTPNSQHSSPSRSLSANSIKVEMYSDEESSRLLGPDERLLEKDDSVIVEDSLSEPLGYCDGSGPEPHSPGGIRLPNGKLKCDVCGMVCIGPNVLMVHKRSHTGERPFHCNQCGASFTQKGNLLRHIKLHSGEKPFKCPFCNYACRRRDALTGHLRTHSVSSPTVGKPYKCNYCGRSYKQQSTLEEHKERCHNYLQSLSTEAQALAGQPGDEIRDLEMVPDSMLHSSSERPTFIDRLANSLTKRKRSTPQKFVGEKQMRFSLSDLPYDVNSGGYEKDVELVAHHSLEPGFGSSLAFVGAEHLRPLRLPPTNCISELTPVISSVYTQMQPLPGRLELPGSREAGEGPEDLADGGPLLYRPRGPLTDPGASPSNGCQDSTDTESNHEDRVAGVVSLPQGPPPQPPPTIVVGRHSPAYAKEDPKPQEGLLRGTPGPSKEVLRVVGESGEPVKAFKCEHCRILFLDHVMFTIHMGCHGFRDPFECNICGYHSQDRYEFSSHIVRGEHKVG
UniProt P19823: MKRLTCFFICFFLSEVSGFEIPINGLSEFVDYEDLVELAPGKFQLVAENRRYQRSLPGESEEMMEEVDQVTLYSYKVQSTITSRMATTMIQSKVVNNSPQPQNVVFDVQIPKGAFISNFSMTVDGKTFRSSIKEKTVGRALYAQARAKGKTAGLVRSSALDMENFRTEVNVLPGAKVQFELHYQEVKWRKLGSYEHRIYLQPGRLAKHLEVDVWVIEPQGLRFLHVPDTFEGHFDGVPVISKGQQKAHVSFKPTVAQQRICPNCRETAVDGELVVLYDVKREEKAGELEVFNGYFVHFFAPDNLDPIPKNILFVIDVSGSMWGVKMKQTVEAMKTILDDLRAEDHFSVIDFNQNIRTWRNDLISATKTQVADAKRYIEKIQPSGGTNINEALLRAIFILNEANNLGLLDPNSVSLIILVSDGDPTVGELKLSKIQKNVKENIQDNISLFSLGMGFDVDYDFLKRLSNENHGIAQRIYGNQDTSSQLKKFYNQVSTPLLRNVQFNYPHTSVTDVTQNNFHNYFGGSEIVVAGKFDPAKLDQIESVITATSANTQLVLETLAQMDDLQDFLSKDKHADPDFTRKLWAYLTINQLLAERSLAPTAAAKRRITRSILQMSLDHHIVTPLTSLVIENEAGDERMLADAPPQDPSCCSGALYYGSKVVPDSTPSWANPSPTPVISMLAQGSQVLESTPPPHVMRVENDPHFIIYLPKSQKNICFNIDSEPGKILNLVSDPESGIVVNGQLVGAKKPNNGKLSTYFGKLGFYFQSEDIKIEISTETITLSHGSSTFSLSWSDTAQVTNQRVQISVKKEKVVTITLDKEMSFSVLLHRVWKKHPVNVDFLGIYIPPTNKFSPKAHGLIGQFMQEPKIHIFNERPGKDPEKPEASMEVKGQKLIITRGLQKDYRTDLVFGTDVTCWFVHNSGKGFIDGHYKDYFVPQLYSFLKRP
UniProt P01876, whole entry, looked up: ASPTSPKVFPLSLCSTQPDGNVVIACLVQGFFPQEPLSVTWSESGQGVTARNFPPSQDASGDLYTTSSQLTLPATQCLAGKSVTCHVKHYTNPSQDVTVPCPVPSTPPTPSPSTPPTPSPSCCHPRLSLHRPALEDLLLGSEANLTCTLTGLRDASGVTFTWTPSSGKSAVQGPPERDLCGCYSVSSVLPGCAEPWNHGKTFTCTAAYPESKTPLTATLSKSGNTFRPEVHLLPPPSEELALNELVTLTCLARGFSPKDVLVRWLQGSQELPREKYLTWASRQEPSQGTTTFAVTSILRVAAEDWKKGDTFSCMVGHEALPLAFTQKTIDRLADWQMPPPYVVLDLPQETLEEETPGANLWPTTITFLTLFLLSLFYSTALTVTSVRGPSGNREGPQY
UniProt O15397, whole entry, looked up: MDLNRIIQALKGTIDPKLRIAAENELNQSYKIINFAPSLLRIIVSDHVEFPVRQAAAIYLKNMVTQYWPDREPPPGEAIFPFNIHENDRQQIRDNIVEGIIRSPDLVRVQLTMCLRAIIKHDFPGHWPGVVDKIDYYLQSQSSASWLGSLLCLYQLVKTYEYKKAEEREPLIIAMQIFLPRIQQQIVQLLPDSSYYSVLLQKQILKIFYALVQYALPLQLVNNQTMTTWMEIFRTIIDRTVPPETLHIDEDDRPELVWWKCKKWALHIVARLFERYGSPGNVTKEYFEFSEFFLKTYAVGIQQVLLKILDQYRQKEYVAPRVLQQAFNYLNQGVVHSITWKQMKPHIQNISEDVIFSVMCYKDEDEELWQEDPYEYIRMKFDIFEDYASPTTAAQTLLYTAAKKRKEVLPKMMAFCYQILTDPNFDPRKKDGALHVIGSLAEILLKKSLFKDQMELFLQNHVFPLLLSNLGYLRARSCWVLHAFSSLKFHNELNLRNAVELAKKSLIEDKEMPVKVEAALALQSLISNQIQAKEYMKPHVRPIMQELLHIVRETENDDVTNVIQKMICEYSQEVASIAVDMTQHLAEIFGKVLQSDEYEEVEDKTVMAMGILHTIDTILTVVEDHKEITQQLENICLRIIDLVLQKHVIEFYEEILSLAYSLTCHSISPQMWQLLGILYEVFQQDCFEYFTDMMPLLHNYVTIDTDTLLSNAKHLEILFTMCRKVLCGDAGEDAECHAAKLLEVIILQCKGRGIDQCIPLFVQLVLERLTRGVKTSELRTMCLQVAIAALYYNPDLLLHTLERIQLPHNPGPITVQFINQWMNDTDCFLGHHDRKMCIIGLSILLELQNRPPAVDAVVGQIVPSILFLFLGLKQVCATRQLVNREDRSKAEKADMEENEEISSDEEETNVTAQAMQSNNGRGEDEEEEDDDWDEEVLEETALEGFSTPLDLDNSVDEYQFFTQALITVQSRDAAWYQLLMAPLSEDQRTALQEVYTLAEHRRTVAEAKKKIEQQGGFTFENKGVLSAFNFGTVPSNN
UniProt Q9H1K1: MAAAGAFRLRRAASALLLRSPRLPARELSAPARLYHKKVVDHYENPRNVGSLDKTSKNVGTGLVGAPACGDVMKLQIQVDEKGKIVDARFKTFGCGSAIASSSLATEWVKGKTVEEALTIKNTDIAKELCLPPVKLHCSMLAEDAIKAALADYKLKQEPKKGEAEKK
UniProt O00410: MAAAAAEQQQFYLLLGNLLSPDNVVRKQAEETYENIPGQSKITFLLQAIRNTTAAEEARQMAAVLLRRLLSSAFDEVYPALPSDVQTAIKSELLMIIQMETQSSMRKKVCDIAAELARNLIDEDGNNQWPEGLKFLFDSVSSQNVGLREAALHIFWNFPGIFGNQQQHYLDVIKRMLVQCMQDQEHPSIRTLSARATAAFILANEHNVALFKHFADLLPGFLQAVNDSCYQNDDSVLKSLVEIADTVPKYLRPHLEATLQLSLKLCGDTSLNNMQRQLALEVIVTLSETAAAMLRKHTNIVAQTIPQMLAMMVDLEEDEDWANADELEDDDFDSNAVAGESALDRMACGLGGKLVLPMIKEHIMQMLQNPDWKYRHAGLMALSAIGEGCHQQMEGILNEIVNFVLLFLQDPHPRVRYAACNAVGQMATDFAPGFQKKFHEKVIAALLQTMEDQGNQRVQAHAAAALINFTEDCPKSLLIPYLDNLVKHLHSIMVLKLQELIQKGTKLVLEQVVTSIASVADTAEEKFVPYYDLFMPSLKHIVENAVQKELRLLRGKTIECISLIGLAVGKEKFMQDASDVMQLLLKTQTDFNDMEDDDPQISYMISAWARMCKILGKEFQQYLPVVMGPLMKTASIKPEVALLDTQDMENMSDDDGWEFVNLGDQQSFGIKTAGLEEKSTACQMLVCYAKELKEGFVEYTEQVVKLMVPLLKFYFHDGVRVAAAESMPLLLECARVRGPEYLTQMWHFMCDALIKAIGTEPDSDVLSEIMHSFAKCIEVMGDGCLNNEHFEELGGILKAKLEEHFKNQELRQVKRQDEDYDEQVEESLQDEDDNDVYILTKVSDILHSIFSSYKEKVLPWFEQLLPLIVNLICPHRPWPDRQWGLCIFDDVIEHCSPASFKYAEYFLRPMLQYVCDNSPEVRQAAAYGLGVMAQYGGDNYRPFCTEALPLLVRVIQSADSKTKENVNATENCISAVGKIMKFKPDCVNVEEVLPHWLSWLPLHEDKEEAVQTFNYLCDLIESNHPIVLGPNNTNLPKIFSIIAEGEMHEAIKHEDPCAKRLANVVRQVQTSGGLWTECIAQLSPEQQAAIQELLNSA

What was measured:
Experiment in all cases: log2 fold change, soluble protein after heating vs DMSO (PISA); higher = thermal stabilisation; K562 cells, 10 uM, 30 min; active = over 0.2 and 3.5 SD of the protein, either way, in both replicates (recomputed)
saracatinib = compound: CN1CCN(CCOc2cc(OC3CCOCC3)c3c(Nc4c(Cl)ccc5c4OCO5)ncnc3c2)CC1 [saracatinib]
Summary of the method: (§1)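 K562 cells at 2×10^6 cells/mL were treated for 30 min with 10 μM compound, and aliquots were heated for 3 min over 48°C-58°C before pooling. Extraction used PBS with 0.5% NP-40 at 4°C, and soluble protein was the supernatant after 21,000xg for 90 min, measured by TMTpro 16plex LC-MS/MS with channel sums equalised. Thermal stability values, relative to control samples and from duplicates, are log2 fold changes.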

sotrastaurin = compound: CN1CCN(c2nc(C3=C(c4c[nH]c5ccccc45)C(=O)NC3=O)c3ccccc3n2)CC1 [sotrastaurin]
Summary of the method: as §1

alvocidib = compound: CN1CC[C@H](c2c(O)cc(O)c3c(=O)cc(-c4ccccc4Cl)oc23)[C@H](O)C1 [alvocidib]
Summary of the method: as §1

Tubastatin A = compound: CN1CCc2c(c3ccccc3n2Cc2ccc(C(=O)NO)cc2)C1 [Tubastatin A]
Summary of the method: as §1

[1] = compound: CNC(=O)C1=CC=CC=C1NC2=NC(=NC=C2Cl)NC3=C(C=C(C=C3)N4CCOCC4)OC
Summary of the method: as §1

defactinib = compound: CNC(=O)c1ccc(Nc2ncc(C(F)(F)F)c(NCc3nccnc3N(C)S(C)(=O)=O)n2)cc1 [defactinib]
Summary of the method: as §1

rucaparib = compound: CNCc1ccc(-c2[nH]c3cc(F)cc4c3c2CCNC4=O)cc1 [rucaparib]
Summary of the method: as §1

[2] = compound: CNc1nc(-c2ccc3c(N)n[nH]c3c2)cc(N2C[C@@H](C(=O)NC3CCCCC3)CC[C@H]2C)n1
Summary of the method: as §1

encorafenib = compound: COC(=O)N[C@@H](C)CNc1nccc(-c2cn(C(C)C)nc2-c2cc(Cl)cc(NS(C)(=O)=O)c2F)n1 [encorafenib]
Summary of the method: as §1

[3] = compound: COC(=O)[C@H](CCSC)NC(=O)C1=C(C=C(C=C1)NC[C@H](CS)N)C2=CC=CC=C2
Summary of the method: as §1

[4] = compound: COC1=CC=C(C=C1)CN2C=CC3=C2C=C(C=C3)C(=O)NO
Summary of the method: as §1

filanesib = compound: CON(C)C(=O)N1N=C(c2cc(F)ccc2F)S[C@@]1(CCCN)c1ccccc1 [filanesib]
Summary of the method: as §1

zotarolimus = compound: CO[C@H]1C[C@@H]2CC[C@@H](C)[C@@](O)(O2)C(=O)C(=O)N2CCCC[C@H]2C(=O)O[C@H]([C@H](C)C[C@@H]2CC[C@H](n3cnnn3)[C@H](OC)C2)CC(=O)[C@H](C)/C=C(\C)[C@@H](O)[C@@H](OC)C(=O)[C@H](C)C[C@H](C)/C=C/C=C/C=C/1C [zotarolimus]
Summary of the method: as §1

idasanutlin = compound: COc1cc(C(=O)O)ccc1NC(=O)[C@@H]1N[C@@H](CC(C)(C)C)[C@](C#N)(c2ccc(Cl)cc2F)[C@H]1c1cccc(Cl)c1F [idasanutlin]
Summary of the method: as §1

alisertib = compound: COc1cc(Nc2ncc3c(n2)-c2ccc(Cl)cc2C(c2c(F)cccc2OC)=NC3)ccc1C(=O)O [alisertib]
Summary of the method: as §1

[5] = compound: COc1cc2nc(-c3cc(F)ccc3O)nc(N[C@@H]3CNC[C@H]3C(C)(C)O)c2cc1OC
Summary of the method: as §1

gefitinib = compound: COc1cc2ncnc(Nc3ccc(F)c(Cl)c3)c2cc1OCCCN1CCOCC1 [gefitinib]
Summary of the method: as §1

[6] = compound: COc1cccc2cc(-c3nc([C@H]4CC[C@H](C(=O)O)CC4)n4ncnc(N)c34)[nH]c12
Summary of the method: as §1

lapatinib = compound: CS(=O)(=O)CCNCc1ccc(-c2ccc3ncnc(Nc4ccc(OCc5cccc(F)c5)c(Cl)c4)c3c2)o1 [lapatinib]
Summary of the method: as §1

pictilisib = compound: CS(=O)(=O)N1CCN(Cc2cc3nc(-c4cccc5[nH]ncc45)nc(N4CCOCC4)c3s2)CC1 [pictilisib]
Summary of the method: as §1

Measured: log2 fold change

IDH3B (UniProt O43837)
inactive: saracatinib 0.035 | sotrastaurin 0.011 | alvocidib -0.038 | Tubastatin A 0.036 | [1] -0.004 | defactinib -0.065 | rucaparib -0.054 | [2] 0.013 | encorafenib -0.029 | [3] -0.028 | [4] 0.138 | filanesib -0.061 | zotarolimus 0.033 | idasanutlin -0.131 | alisertib -0.033 | [5] -0.009 | gefitinib 0.015 | [6] 0.015 | lapatinib 0.031 | pictilisib 0.025

ITM2A (UniProt O43736)
inactive: saracatinib -0.014 | sotrastaurin 0.095 | alvocidib 0.086 | Tubastatin A 0.097 | [1] 0.036 | defactinib 0.008 | rucaparib 0.089 | [2] 0.093 | encorafenib 0.169 | [3] -0.02 | [4] -0.006 | filanesib 0.143 | zotarolimus 0.043 | idasanutlin -0.004 | alisertib -0.076 | [5] 0.104 | gefitinib -0.002 | [6] -0.193 | lapatinib 0.063 | pictilisib 0.091

INPP5K (UniProt Q9BT40)
inactive: saracatinib 0.016 | sotrastaurin 0.022 | alvocidib 0.025 | Tubastatin A -0.005 | [1] -0.061 | defactinib 0.072 | rucaparib 0.011 | [2] 0.297 | encorafenib 0.033 | [3] -0.027 | [4] -0.041 | filanesib -0.248 | zotarolimus 0.032 | alisertib -0.13 | gefitinib 0.111 | [6] 0.135 | pictilisib 0.08

IKBIP (UniProt Q70UQ0)
inactive: saracatinib -0.018 | sotrastaurin 0.028 | alvocidib -0.016 | Tubastatin A -0.016 | [1] -0.007 | defactinib 0.038 | rucaparib 0.016 | [2] -0.034 | encorafenib -0.022 | [3] 0.03 | [4] -0.057 | filanesib 0.003 | zotarolimus -0.031 | idasanutlin -0.022 | alisertib -0.093 | [5] -0.001 | gefitinib 0.013 | [6] -0.017 | lapatinib 0.023 | pictilisib 0.017

INTS8 (UniProt Q75QN2)
inactive: saracatinib -0.01 | sotrastaurin 0.012 | alvocidib 0 | Tubastatin A 0.097 | [1] 0.039 | defactinib -0.114 | rucaparib -0.198 | [2] -0.005 | encorafenib -0.049 | [3] 0.014 | [4] 0.009 | filanesib -0.262 | zotarolimus -0.073 | idasanutlin 0.001 | [5] 0.099 | gefitinib 0.261 | lapatinib 0.089 | pictilisib 0.04

ISCA2 (UniProt Q86U28)
inactive: saracatinib 0.085 | sotrastaurin 0.003 | alvocidib 0.002 | Tubastatin A -0.085 | [1] 0.043 | defactinib -0.075 | rucaparib -0.031 | [2] 0.011 | encorafenib -0.028 | [3] -0.026 | [4] 0.08 | filanesib -0.062 | zotarolimus -0.033 | idasanutlin 0.008 | alisertib -0.041 | [5] -0.035 | gefitinib 0.003 | [6] -0.024 | lapatinib -0.026 | pictilisib 0.045

IGBP1 (UniProt P78318)
inactive: saracatinib -0.069 | sotrastaurin -0.05 | alvocidib -0.026 | Tubastatin A 0.012 | [1] -0.023 | defactinib -0.008 | rucaparib -0.061 | [2] -0.025 | encorafenib 0.073 | [3] 0.049 | [4] 0.004 | filanesib -0.042 | zotarolimus -0.018 | idasanutlin 0.002 | alisertib -0.014 | [5] -0.071 | gefitinib 0.003 | [6] 0.021 | lapatinib 0.089 | pictilisib 0.063

IKZF4 (UniProt Q9H2S9)
inactive: saracatinib -0.009 | sotrastaurin -0.157 | alvocidib -0.136 | [1] -0.119 | defactinib -0.271 | [2] -0.159 | [3] 0.049 | filanesib 0.06 | zotarolimus 0.042 | idasanutlin 0.09 | [5] -0.058 | gefitinib 0.119 | lapatinib -0.116 | pictilisib 0.139

ITIH2 (UniProt P19823)
inactive: saracatinib 0.363 | sotrastaurin 0.33 | alvocidib 0.076 | Tubastatin A -0.101 | [1] 0.15 | defactinib -0.112 | rucaparib -0.233 | [2] 0.032 | encorafenib -0.023 | [3] 0.17 | [4] -0.082 | filanesib 0.149 | zotarolimus -0.194 | idasanutlin 0.074 | alisertib -0.118 | [5] -0.123 | gefitinib -0.136 | [6] 0.346 | lapatinib -0.029 | pictilisib -0.102

ITFG2 (UniProt Q969R8)
inactive: saracatinib -0.034 | sotrastaurin 0.051 | alvocidib -0.086 | Tubastatin A -0.016 | [1] 0.026 | defactinib -0.041 | [2] 0.003 | [3] -0.001 | [4] -0.053 | filanesib 0.055 | zotarolimus 0.035 | idasanutlin -0.042 | alisertib 0.069 | [5] 0.055 | gefitinib -0.061 | [6] -0.014 | lapatinib 0.038

IGHA1 (UniProt P01876)
inactive: saracatinib -0.504 | sotrastaurin -0.048 | alvocidib -0.299 | Tubastatin A 0.095 | [1] 0.139 | defactinib 0.2 | rucaparib 0.223 | [2] 0.267 | encorafenib -0.424 | [3] 0.368 | filanesib 0.456 | zotarolimus -0.387 | idasanutlin 0.261 | alisertib 0.405 | [5] -0.018 | gefitinib 0.265 | [6] -0.192 | lapatinib 0.332 | pictilisib 0.264

IPO8 (UniProt O15397)
inactive: saracatinib -0.173 | sotrastaurin -0.177 | alvocidib 0.082 | Tubastatin A 0.092 | [1] -0.012 | defactinib -0.159 | rucaparib 0.234 | [2] 0.046 | encorafenib 0.172 | [3] 0.105 | [4] 0.034 | filanesib 0.19 | zotarolimus 0.158 | idasanutlin 0.105 | [5] -0.068 | lapatinib 0.02

ISCU (UniProt Q9H1K1)
inactive: saracatinib 0.003 | sotrastaurin 0.085 | alvocidib 0.018 | Tubastatin A -0.068 | [1] 0.008 | defactinib 0.012 | rucaparib -0.095 | [2] -0.04 | encorafenib -0.015 | [3] 0.025 | [4] -0.1 | filanesib -0.021 | zotarolimus -0.023 | idasanutlin 0.003 | alisertib 0.041 | [5] -0.025 | gefitinib -0.022 | [6] 0.043 | lapatinib 0.01 | pictilisib -0.037

2 entries drawn at random from those above, as already listed:
ISCU (UniProt Q9H1K1)
inactive: saracatinib 0.003 | sotrastaurin 0.085 | alvocidib 0.018 | Tubastatin A -0.068 | [1] 0.008 | defactinib 0.012 | rucaparib -0.095 | [2] -0.04 | encorafenib -0.015 | [3] 0.025 | [4] -0.1 | filanesib -0.021 | zotarolimus -0.023 | idasanutlin 0.003 | alisertib 0.041 | [5] -0.025 | gefitinib -0.022 | [6] 0.043 | lapatinib 0.01 | pictilisib -0.037

ITFG2 (UniProt Q969R8)
inactive: saracatinib -0.034 | sotrastaurin 0.051 | alvocidib -0.086 | Tubastatin A -0.016 | [1] 0.026 | defactinib -0.041 | [2] 0.003 | [3] -0.001 | [4] -0.053 | filanesib 0.055 | zotarolimus 0.035 | idasanutlin -0.042 | alisertib 0.069 | [5] 0.055 | gefitinib -0.061 | [6] -0.014 | lapatinib 0.038

(listing goes on)

ISG15 (UniProt P05161)
inactive: saracatinib -0.085 | sotrastaurin -0.085 | alvocidib -0.217 | Tubastatin A 0.088 | [1] 0.088 | defactinib -0.177 | rucaparib -0.003 | [2] 0.01 | encorafenib 0.085 | [3] -0.041 | [4] 0.05 | filanesib -0.02 | zotarolimus 0.01 | idasanutlin 0.026 | alisertib -0.03 | [5] -0.075 | gefitinib 0.06 | [6] -0.01 | lapatinib 0.02 | pictilisib 0.026

ITGAV (UniProt P06756)
inactive: saracatinib 0.059 | sotrastaurin 0.053 | alvocidib 0.031 | Tubastatin A -0.005 | [1] -0.02 | defactinib -0.009 | rucaparib 0.03 | [2] -0.031 | encorafenib 0.029 | [3] 0.008 | [4] -0.027 | filanesib 0.028 | zotarolimus -0.01 | idasanutlin 0.037 | alisertib -0.093 | [5] -0.008 | gefitinib 0.049 | [6] 0.003 | lapatinib -0.02 | pictilisib 0.062

IPO5 isoform 3 (UniProt O00410)
inactive: saracatinib 0.043 | sotrastaurin -0.107 | alvocidib -0.098 | Tubastatin A -0.102 | [1] 0 | defactinib -0.036 | rucaparib -0.114 | [2] -0.015 | encorafenib 0.037 | [3] -0.01 | [4] 0.06 | filanesib -0.16 | zotarolimus 0.006 | idasanutlin -0.087 | alisertib -0.061 | [5] -0.136 | gefitinib -0.023 | [6] 0.022 | lapatinib 0.071 | pictilisib -0.068

ITCH (UniProt Q96J02)
inactive: saracatinib 0.008 | sotrastaurin -0.045 | alvocidib -0.087 | Tubastatin A -0.026 | [1] 0.034 | defactinib 0 | rucaparib 0.232 | [2] -0.061 | encorafenib 0.11 | [3] 0.13 | [4] -0.015 | filanesib 0.09 | zotarolimus -0.001 | idasanutlin -0.111 | alisertib -0.006 | [5] 0.049 | gefitinib 0.015 | [6] -0.021 | lapatinib 0.059 | pictilisib -0.049
